Test results as given in PMC6391492, “Native mass spectrometry identifies an alternative DNA-binding pathway for BirA from Staphylococcus aureus”.
No constants are given. Whether binding was seen depends on the method and setting.

Amino acid sequences for entries named in this document (tags omitted).
UniProt P06709: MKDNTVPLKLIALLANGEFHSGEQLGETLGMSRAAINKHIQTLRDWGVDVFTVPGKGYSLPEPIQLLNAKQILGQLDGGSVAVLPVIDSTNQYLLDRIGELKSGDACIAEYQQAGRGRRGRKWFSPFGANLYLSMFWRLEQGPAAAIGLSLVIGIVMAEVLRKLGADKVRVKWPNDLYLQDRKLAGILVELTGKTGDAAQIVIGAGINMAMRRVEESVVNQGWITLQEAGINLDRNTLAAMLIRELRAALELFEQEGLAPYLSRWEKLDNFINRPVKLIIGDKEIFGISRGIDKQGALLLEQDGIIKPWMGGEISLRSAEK

Molecular target: E. coli BirA (biotin retention protein A, biotin protein ligase), wild type (E. coli) (UniProt P06709)
Assay: condition: only apo (without biotin and MgATP); 10 µM; native MS; apo proteins (no biotinyl-5′-AMP), no DNA, 10 µM protein in 200 mM ammonium acetate pH 6.85, nano-electrospray; dimer to monomers; both purified

binding: no binding
Substance: E. coli BirA (biotin retention protein A, biotin protein ligase), wild type (from UniProt P06709 1-321) (enzyme)
